Measured values reported in PMC9898264.
Results are given in words; binding and its absence hold for the method and conditions named. Binding seen in cells or lysates may run through a third protein. Some entries that bind do so weakly or less than the wild type. Blank lines part the entries; values can stand above or below the molecule they belong to.

Amino acid sequences for entries named in this document (tags omitted). Residues count along the entry.
UniProt Q9JM53, residues 102-612: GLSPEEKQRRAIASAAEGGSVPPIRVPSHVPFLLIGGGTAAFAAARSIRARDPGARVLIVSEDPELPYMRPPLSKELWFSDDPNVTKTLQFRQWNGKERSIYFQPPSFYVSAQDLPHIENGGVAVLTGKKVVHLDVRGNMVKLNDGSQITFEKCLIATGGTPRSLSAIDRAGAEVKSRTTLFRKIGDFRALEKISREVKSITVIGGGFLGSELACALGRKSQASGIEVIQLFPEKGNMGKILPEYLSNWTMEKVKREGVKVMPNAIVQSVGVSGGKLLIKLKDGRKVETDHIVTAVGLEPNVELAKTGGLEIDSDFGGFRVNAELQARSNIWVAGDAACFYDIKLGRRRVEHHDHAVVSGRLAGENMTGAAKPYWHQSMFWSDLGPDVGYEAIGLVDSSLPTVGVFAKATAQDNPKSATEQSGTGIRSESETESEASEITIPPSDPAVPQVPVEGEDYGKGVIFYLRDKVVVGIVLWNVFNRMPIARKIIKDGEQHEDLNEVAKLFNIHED
UniProt Q68FX9, residues 37-310: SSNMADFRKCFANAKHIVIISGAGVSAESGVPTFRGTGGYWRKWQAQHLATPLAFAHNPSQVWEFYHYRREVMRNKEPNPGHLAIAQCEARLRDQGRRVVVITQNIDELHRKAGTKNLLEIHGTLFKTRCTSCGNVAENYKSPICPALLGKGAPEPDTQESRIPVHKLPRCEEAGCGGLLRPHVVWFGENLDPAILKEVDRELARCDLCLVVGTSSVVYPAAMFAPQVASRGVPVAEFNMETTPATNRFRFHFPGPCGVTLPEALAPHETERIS

What was measured:
[1] = target: apoptosis-inducing factor mitochondrion-associated 1 (AIFM1) (rat (endogenous in rat NP cells)) (UniProt Q9JM53); assay: co-IP; endogenous proteins in rat NP cells; IP with 5 ug anti-AIFM1 or 4 ug anti-SIRT5, Protein A/G magnetic beads, Western blot; AIFM1-CHCHD4 co-IP done in si-NC and si-Sirt5 cells
[2] = target: Sirtuin 5 (SIRT5) (rat (endogenous in rat NP cells)) (UniProt Q68FX9); assay: as above
[3] = target: apoptosis-inducing factor mitochondrion-associated 1 (AIFM1) (rat (endogenous in rat NP cells)) (UniProt Q9JM53); assay: co-IP; in vitro succinylation assay: AIFM1 purified from NP cells, incubated with different concentrations of succinyl-CoA in succinylation buffer (20 mmol/L HEPES pH 8.0, 1 mmol/L DTT, 1 mmol/L PMSF, 0.1 mg/mL BSA) 15 min at 30 °C; Western blot of succinylated AIFM1 and of CHCHD4 bound to AIFM1

binding [1]: binds
Molecule: Sirtuin 5 (SIRT5) (from UniProt Q68FX9 37-310) (enzyme)

binding [2]: binds
Molecule: apoptosis-inducing factor mitochondrion-associated 1 (AIFM1) (from UniProt Q9JM53 102-612)

binding [3]: binds | binding [1]: binds
B1: CHCHD4 (protein, UniProt Q5BJN5 1-139)
chain: MSYCRQEGKDRIIFVTKEDHETPSSAELVADDPNDPYEEHGLILPNGDINWNCPCLGGMASGPCGEQFKSAFSCFHYSTEDIKGSDCIDQFRAMQECMQKYPDLYPQDEEEEEEAKPVEPVEETADTKASAAKEQGASS
